# Values from PubChem BioAssay AID1259308 (NCATS, 2017).
# Purpose: 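Genes whose loss raises luciferase production in HEK293 cells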 (primary screen)
# System: human HEK293 embryonic kidney cells stably expressing firefly luciferase (HEK-CMV-Luc2-Hygro)
# Reagents: single siRNA against human genes, 0.8 pmol siRNA per well
# Duration: 72 h
# Read-out: 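Reporter luminescence and viable-cell signal on separate replicate plates, given as percent of non-targeting control and median/MAD z-scores, plus per-cell luciferase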
# Reading the numbers: total luciferase, z-score and total luciferase, % of control: higher = more reporter protein produced; luciferase per cell, z-score: higher = more reporter output per viable cell; viable cells, % of control: higher = more viable cells
# Rule for the call: 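Active when the median/MAD z-score for overall luciferase is greater than 3; a gene was taken forward for validation with new siRNAs if at least two of its three siRNAs passed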
# Calls: active = raised luciferase; inactive = no rise
# Here is a random part of about 59,000 reagents. About 1,510 of them (2.6%) count as active. 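Calls use total luciferase alone and ignore viability, so some active siRNAs may act by altering cell number.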 Unmarked entries are inactive. The numbers tell different reagents against one gene apart. Reagent sequences are not shown.
target gene,siRNA no.,"total luciferase, z-score","total luciferase, % of control","luciferase per cell, z-score","viable cells, % of control"
SNTB1,1,-0.652,68.9,-0.921,98.1
SNTB1,2,0.108,84,-0.851,117
SNTB1,3,0.417,90.2,-0.339,110
CIBAR1P2,1,-3.13,19.6,-1.85,35.7
CIBAR1P2,2,-1.1,60,-0.667,80
CIBAR1P2,3,1.31,108,0.373,109
ORMDL2,1,-0.617,69.6,-1.44,114
ORMDL2,2,-0.575,70.5,-0.975,102
ORMDL2,3,0.0819,83.5,-0.833,116
QPCT,1,-0.329,75.3,0.116,81.7
QPCT,2,-1.52,51.7,-0.967,74.6
QPCT,3,-0.53,71.3,0.701,66.3
KRT37,1,-0.178,78.4,-0.479,99.3
KRT37,2,-0.821,65.6,-1.1,97.8
KRT37,3,0.968,101,0.213,107
TFRC,1,0.442,90.7,1.28,72.3
TFRC,2,-0.501,71.9,-0.479,91.2
TFRC,3,-0.91,63.8,-1.19,97.4
DEPDC1,1,1.36,109,2.34,65.7
DEPDC1,2,0.37,89.3,0.705,82.8
DEPDC1,3,-1.92,43.8,-0.347,53.6
PRDM10,1,1.03,102,1.03,87.1
PRDM10,2,0.0604,83.1,-0.379,103
PRDM10,3,-0.122,79.5,0.589,76
SH2D5,1,-0.564,70.7,-0.429,88.4
SH2D5,2,-0.664,68.7,1.03,58.5
SH2D5,3,-0.801,66,-0.748,89.7
TPX2,1,-0.202,77.9,1.27,62.4
TPX2,2,-1.01,61.8,1.05,52.4
TPX2,3,-1.04,61.3,0.231,64.4
LINC01896,1,2.26,127,2.77,68.4
LINC01896,2,0.254,86.9,0.27,90.5
LINC01896,3,1.12,104,0.87,92.6
ARL6IP6,1,2.73,136,1.13,113
ARL6IP6,2,0.485,91.5,1.46,69.7
ARL6IP6,3,0.572,93.3,0.501,91.4
NPPB,1,0.551,92.8,0.404,93.3
NPPB,2,-0.287,76.2,-0.422,95.1
NPPB,3,0.119,84.2,0.637,79.6
HNRNPH1,1,0.944,101,0.867,89.5
HNRNPH1,2,3.02 (active),142,3.99,55.5
HNRNPH1,3,0.862,99,1.16,81.6
STARD9,1,-2.34,35.3,-2.44,75
STARD9,2,1.54,113,1.7,80.4
STARD9,3,0.5,91.8,0.359,93.4
POMGNT2,1,0.172,85.3,-0.217,101
POMGNT2,2,-1.97,42.6,-2.3,87.3
POMGNT2,3,0.768,97.2,0.535,94.3
VEGFD,1,-0.797,66,-0.174,77.2
VEGFD,2,-1.17,58.7,-1.39,94.6
VEGFD,3,-0.243,77.1,-0.464,97.3
MRTFB,1,-0.519,71.6,-0.127,82.7
MRTFB,2,-1.47,52.7,-1.37,84.4
MRTFB,3,7.7 (active),235,5.53,61.2
ABHD17B,1,1.63,114,0.511,112
ABHD17B,2,0.347,88.8,0.00468,99.1
ABHD17B,3,-1.38,54.5,-0.597,71.3
